Data reported in publication PMC8692152.
These are yes or no findings as the source states them, for the method shown. For some assays here: Binding seen in cells or lysates may run through a third protein. Some results given as binding are weak or reduced against the parent protein; the word gives no strength. Where a sequence is shown, tags or fusion partners need not be part of it.

Amino acid sequences for entries named in this document (tags omitted). A change or cut given only in a name is not applied to a line headed by its entry.
UniProt Q16254: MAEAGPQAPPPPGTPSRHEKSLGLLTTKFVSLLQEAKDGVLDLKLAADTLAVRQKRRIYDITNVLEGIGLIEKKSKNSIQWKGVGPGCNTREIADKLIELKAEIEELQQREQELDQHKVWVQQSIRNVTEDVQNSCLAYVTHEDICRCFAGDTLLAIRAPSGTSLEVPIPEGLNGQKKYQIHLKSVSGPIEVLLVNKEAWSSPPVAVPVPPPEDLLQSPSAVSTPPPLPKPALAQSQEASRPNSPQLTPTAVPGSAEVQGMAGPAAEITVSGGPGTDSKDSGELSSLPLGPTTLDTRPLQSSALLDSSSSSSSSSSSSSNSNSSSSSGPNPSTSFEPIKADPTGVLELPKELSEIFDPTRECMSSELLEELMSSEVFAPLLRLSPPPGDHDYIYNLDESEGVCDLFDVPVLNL

B1: mCherry-Id1 fusion protein (Inhibitor of differentiation/DNA binding 1) (protein, UniProt P41134 1-155)
chain: MKVASGSTATAAAGPSCALKAGKTASGAGEVVRCLSEQSVAISRCAGGAGARLPALLDEQQVNVLLYDMNGCYSRLKELVPTLPQNRKVSKVEILQHVIDYIRDLQLELNSESEVGTPGGRGLPVRAPLSTLNGEISALTAEAACVPADDRILCR
B2: His-Id1 (protein, UniProt P41134 1-155)
chain: B1 chain

Assays:
[1] = biological target: EGFP-E2F4 fusion protein (E2F transcription factor 4) (UniProt Q16254); test: co-IP; lysates of HepG2 cells overexpressing mCherry-Id1 and EGFP-E2F4; IP with anti-Cherry or anti-GFP, protein A/G agarose; lysis buffer 50 mM Tris-Cl pH 7.5, 50 mM NaCl, 5 mM EDTA, 1% NP-40; 4 C; western blot
[2] = biological target: GST-E2F4 (UniProt Q16254); test: pull-down; GST-E2F4 as bait on GST affinity column, His-Id1 as prey; washed with PBS, eluted by glutathione; western blot with anti-Id1, anti-His, anti-E2F4, anti-GST; both purified

binding [1] | binding [2] | Binder
binds |  | B1
 | binds | B2
